Laboratory results from the supplement of paper PMC11732987, “Enantioselective OTUD7B fragment discovery through chemoproteomics screening and high-throughput optimisation” (Communications Chemistry, 2025).
The other results are listed elsewhere or left out. The data scatter; read single values as rough.

Amino acid sequences for entries named in this document (tags omitted). A change or cut given only in a name is not applied to a line headed by its entry. Residues count along the entry.
UniProt Q99439: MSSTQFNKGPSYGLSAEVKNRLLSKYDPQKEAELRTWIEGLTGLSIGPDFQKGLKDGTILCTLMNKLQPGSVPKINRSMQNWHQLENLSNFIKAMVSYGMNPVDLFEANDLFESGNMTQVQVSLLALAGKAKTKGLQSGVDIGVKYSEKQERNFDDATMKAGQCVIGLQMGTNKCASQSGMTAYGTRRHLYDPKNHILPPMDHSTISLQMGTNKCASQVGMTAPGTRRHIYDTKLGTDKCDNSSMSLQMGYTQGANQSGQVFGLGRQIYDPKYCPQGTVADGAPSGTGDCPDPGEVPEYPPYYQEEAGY
UniProt Q96RY5, 579-605: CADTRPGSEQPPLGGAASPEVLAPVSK
UniProt Q14008: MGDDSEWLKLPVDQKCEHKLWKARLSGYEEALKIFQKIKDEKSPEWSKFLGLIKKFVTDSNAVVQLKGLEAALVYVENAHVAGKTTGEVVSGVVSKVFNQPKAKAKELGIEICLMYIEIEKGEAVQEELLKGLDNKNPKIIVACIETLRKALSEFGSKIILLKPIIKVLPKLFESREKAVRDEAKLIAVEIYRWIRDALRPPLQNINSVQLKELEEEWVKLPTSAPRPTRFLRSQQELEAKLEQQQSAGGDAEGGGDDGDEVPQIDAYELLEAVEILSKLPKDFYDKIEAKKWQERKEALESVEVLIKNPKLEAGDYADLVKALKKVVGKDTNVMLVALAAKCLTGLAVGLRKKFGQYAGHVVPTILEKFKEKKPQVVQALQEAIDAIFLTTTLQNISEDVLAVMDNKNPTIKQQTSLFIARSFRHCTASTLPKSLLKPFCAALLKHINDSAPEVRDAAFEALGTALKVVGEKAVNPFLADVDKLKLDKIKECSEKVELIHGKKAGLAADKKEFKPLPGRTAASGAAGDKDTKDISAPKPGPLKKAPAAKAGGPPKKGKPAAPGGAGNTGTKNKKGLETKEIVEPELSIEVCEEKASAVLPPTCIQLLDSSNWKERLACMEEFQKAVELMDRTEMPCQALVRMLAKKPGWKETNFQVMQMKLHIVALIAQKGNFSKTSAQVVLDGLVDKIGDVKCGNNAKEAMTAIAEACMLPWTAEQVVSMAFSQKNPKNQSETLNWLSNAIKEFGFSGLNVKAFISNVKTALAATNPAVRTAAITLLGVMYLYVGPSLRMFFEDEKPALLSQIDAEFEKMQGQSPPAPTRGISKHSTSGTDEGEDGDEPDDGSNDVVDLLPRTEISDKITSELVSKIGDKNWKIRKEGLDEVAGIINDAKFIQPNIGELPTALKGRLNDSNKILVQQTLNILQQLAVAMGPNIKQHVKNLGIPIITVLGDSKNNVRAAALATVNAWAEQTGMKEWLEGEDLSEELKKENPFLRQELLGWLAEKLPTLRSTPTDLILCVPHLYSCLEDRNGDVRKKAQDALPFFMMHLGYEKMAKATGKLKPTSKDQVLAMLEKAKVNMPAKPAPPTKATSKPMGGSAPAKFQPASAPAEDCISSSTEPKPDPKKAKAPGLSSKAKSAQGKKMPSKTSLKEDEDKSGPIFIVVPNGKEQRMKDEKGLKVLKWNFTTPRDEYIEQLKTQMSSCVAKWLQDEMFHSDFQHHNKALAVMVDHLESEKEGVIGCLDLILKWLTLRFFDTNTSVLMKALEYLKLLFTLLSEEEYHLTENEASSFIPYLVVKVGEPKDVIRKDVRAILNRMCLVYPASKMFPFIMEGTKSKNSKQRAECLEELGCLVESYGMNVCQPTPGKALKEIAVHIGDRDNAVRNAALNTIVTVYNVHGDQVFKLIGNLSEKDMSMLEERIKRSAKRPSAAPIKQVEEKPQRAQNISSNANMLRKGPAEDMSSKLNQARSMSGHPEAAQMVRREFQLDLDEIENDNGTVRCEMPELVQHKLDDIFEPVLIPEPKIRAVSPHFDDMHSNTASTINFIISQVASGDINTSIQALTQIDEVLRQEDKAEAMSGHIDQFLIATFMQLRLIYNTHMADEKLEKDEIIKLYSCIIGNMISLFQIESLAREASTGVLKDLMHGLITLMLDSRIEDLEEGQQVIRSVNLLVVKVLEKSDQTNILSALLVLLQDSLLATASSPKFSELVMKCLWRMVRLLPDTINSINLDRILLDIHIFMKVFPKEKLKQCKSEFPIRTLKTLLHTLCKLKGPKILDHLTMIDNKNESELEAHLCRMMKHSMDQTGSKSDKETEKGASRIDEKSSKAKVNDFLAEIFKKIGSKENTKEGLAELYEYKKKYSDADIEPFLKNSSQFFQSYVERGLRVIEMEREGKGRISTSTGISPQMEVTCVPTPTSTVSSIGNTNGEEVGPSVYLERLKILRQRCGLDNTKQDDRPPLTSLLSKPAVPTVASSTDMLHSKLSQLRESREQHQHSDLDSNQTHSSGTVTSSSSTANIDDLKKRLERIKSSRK
UniProt Q86VU5: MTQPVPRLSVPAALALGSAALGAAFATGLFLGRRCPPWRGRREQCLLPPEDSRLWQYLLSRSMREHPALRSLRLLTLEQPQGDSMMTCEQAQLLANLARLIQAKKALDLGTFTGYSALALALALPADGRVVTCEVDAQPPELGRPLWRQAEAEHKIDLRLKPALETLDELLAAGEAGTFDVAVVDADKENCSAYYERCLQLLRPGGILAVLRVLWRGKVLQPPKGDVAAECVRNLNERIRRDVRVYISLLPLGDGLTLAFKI
UniProt Q00610: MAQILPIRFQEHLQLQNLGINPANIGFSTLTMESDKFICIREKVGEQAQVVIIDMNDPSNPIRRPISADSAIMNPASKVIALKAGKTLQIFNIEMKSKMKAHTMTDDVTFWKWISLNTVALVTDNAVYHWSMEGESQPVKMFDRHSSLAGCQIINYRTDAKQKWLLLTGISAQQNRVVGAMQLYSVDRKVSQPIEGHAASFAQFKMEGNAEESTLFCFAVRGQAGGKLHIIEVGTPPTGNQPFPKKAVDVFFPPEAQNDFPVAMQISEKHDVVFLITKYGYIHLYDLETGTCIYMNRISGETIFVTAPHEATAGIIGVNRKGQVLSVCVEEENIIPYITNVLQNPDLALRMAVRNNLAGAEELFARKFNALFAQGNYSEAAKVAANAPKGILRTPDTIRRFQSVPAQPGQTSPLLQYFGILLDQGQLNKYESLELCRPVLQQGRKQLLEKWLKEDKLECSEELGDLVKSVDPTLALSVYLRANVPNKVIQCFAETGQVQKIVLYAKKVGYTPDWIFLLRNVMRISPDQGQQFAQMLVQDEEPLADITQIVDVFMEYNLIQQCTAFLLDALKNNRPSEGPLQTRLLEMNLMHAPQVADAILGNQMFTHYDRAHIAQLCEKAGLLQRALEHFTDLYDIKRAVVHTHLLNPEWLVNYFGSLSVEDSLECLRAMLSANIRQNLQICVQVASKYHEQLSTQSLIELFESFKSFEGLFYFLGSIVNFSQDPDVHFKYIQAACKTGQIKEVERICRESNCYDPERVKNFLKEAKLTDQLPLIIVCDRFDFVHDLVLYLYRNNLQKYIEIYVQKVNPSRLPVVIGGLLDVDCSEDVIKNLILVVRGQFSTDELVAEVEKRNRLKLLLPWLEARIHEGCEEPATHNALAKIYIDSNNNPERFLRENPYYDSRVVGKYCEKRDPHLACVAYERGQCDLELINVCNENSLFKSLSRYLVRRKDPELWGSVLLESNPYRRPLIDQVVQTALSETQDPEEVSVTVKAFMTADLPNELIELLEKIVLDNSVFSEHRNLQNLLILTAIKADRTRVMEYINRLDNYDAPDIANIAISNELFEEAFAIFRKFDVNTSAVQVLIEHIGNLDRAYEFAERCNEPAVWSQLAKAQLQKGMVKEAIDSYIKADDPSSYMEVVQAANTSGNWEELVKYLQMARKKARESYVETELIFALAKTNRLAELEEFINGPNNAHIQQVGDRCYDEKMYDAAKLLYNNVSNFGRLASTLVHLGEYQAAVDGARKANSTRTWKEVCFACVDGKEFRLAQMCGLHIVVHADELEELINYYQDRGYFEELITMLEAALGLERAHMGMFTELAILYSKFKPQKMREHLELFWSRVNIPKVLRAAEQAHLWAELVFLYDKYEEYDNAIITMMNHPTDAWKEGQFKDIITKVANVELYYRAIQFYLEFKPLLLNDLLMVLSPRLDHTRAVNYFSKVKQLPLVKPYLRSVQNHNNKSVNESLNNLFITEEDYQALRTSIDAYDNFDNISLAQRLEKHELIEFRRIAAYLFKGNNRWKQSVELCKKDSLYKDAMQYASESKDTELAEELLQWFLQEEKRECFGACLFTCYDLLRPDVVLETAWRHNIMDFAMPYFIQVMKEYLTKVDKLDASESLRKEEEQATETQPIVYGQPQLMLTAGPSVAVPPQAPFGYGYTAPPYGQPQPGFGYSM
UniProt Q9UKF6: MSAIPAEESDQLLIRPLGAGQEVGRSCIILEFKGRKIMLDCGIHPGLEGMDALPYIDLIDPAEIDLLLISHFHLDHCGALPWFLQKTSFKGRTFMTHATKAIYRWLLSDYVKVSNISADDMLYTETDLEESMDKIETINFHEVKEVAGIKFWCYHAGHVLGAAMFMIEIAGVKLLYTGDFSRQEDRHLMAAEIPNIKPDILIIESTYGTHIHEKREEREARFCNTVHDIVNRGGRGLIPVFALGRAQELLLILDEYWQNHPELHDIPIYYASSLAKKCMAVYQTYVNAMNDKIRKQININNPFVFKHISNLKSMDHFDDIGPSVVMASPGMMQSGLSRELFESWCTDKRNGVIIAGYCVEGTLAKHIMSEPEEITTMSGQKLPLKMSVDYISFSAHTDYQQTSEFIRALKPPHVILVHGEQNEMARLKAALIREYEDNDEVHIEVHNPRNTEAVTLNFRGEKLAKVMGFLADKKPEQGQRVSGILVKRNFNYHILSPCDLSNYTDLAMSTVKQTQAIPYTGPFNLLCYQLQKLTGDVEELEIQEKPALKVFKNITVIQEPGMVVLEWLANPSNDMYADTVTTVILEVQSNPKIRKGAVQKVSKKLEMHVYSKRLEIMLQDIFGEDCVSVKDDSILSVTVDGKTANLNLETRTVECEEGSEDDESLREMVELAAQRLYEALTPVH
UniProt Q14677: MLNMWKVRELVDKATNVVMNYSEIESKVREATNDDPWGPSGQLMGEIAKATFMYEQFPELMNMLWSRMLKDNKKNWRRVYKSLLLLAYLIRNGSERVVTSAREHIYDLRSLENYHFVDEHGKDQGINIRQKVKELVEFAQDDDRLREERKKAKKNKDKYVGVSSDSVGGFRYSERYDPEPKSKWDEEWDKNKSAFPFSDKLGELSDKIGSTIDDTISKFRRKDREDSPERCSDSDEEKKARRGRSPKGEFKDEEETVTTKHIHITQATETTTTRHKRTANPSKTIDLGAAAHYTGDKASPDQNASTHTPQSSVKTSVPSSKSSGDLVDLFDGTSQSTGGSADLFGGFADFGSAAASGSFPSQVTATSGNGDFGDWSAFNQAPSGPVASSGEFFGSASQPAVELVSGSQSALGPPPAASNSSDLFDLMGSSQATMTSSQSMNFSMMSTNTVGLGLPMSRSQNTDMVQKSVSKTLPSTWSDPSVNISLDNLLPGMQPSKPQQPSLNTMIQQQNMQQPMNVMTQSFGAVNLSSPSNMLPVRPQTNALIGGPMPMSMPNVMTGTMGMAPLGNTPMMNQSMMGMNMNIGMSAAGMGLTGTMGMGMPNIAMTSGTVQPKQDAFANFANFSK
UniProt Q07065, 79-102: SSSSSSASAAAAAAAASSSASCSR
UniProt Q8NCH0: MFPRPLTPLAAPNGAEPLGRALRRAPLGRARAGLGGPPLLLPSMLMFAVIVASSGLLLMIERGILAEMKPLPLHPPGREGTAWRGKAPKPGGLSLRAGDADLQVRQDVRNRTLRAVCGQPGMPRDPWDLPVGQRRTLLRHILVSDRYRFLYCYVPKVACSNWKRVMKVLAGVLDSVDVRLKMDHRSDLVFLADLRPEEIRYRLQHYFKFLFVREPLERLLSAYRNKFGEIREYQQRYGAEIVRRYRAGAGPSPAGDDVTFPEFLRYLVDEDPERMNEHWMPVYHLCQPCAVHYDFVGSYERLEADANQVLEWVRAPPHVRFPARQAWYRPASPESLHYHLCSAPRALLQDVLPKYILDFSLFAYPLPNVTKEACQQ
UniProt O76071: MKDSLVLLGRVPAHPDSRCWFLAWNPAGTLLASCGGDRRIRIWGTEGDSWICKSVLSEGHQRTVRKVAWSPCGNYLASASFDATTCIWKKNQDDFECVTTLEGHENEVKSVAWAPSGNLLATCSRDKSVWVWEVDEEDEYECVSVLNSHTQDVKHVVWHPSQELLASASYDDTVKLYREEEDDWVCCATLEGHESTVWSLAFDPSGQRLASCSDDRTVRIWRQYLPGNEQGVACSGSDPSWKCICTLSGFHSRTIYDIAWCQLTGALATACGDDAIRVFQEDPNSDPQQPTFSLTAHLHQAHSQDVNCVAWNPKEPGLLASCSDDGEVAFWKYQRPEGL
UniProt Q86WW8: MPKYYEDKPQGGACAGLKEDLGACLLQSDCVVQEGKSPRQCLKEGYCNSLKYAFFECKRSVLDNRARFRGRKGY
UniProt P14854: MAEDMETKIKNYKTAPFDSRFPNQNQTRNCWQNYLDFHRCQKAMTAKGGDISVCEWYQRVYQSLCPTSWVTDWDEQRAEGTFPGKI

compound: ClCC(=O)N[C@H]1CCCc2ccccc12; assay: log2 mean competition ratio of IA-DTB cysteine labelling (DMSO/compound) (log2 ratio); higher = stronger cysteine engagement by compound; conditions: 50 µM; treatment time: 4 h; cell line lysate: HEK293T
Method: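 IA-DTB competitive cysteine chemoproteomics in HEK293T RIPA lysate. Lysates were treated with compound 29 or 30 at 50 or 200 µM for 4 h, then IA-DTB (500 µM, 1 h), trypsin-digested, NeutrAvidin-enriched and analysed by diaPASEF. Competition ratio = intensity DMSO / intensity compound (n=4 treated, n=64 DMSO); binding: mean log2 CR ≥ 1 and p ≤ 0.05 plus QC filters. Target is the cysteine site.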

Target	log2 mean competition ratio
CNN2 C215 (UniProt Q99439)	0.357
COIL C239 (UniProt P38432)	0.351
CRAMP1 C579 (UniProt Q96RY5)	-0.123
CMIP C455 (UniProt Q8IY22)	-0.506
CKAP5 C1500 (UniProt Q14008)	-0.104
COMTD1 C231 (UniProt Q86VU5)	0.421
CLTC C753 (UniProt Q00610)	-0.16
CPSF3 C223 (UniProt Q9UKF6)	-0.789
CKAP5 C1317 (UniProt Q14008)	-0.00407
CPLANE1 C1074	-0.261
CLINT1 C231 (UniProt Q14677)	-0.32
CKAP4 C100 (UniProt Q07065)	-0.499
CHD4 C396	-0.562
CHST14 C159 (UniProt Q8NCH0)	0.414
CLUH C899	-0.174
CIAO1 C52 (UniProt O76071)	-0.0233
COA5 C14 (UniProt Q86WW8)	0.182
CIP2A C472 (UniProt Q8TCG1)	0.207
CIC C1420	-0.0734
COX6B1 C54 (UniProt P14854)	0.658

same assay, conditions: 200 µM; treatment time: 4 h; cell line lysate: HEK293T

Target	log2 mean competition ratio
CNN2 C215 (UniProt Q99439)	0.272
COIL C239 (UniProt P38432)	0.112
CRAMP1 C579 (UniProt Q96RY5)	-0.169
CMIP C455 (UniProt Q8IY22)	0.0803
CKAP5 C1500 (UniProt Q14008)	-0.288
COMTD1 C231 (UniProt Q86VU5)	-0.0533
CLTC C753 (UniProt Q00610)	0.1
CPSF3 C223 (UniProt Q9UKF6)	-0.0642
CKAP5 C1317 (UniProt Q14008)	0.146
CPLANE1 C1074	-0.0328
CLINT1 C231 (UniProt Q14677)	0.0569
CKAP4 C100 (UniProt Q07065)	0.386
CHD4 C396	-0.0842
CHST14 C159 (UniProt Q8NCH0)	0.88
CLUH C899	0.0694
CIAO1 C52 (UniProt O76071)	-0.0423
COA5 C14 (UniProt Q86WW8)	0.0996
CIP2A C472 (UniProt Q8TCG1)	0.0803
CIC C1420	-0.0312
COX6B1 C54 (UniProt P14854)	0.329
